According to US20180148452A1, “TOLL-LIKE RECEPTOR-7 AGONIST” (MEDSHINE DISCOVERY INC., priority 2014, published 2018):
Counter-ions that a name gives are not always drawn. Some entries share one result that the patent states for a list of compounds.

Test system: human Peripheral Blood Mononuclear Cell (PBMC)
Experiment: PBMC assay: cytokine (IFN-α, TNF-α) stimulation at 24 hrs
Type: cell-based
Settings: lowest concentration giving cytokine level at least 3 folds over lowest detection limit

CCC[C@H](C)Oc1nc(N)c2[nH]c(C#N)c(CCCCCN3CCCCC3)c2n1 [Example 2, (S)-4-amino-(1-methylbutoxy)-7-(5-(piperidin-1-yl)pentyl)-5H-pyrrolo[3,2-d]pyrimidine-6-carbonitrile formate]
IFN-α MEC: ≤ 1 pM
TNF-α MEC: ≥ 1 nM
